Literature values as cited in US20160300010A1, “METHOD AND SYSTEM FOR PREDICTING SELECTIVE CANCER DRUG TARGETS” (RAMOT AT TEL-AVIV UNIVERSITY LTD., priority 2011, published 2016).
For at least one compound, name, drawing or mass did not settle the structure.

System: esophageal cancer
Conditions: previously shown

Compound: [Li] [lithium]
- effect on proliferation of esophageal cancer: reduce proliferation of esophageal cancer
